## Screening data

The results are deposited in PubChem (AID1159506; NCATS, 2015).

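Genome-wide siRNA knockdown in TC32 Ewing sarcoma cells, comparing luciferase light from an NR0B1-promoter reporter with a CMV-promoter reporter 48 hours after transfection.
Each siRNA was applied at 20 nM.
A z-score of the log NR0B1-over-CMV signal, less the median of siRNAs with the same seed; more negative means a stronger specific loss of the NR0B1 reporter.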

This is part of the screen; most of the strongest results are not listed here.
Sequences are the guide (antisense) strand, without overhang.

| # | Sequence | gene | seed-corrected z-score |
|---|---|---|---|
| 1 | `UAUAUGUCCCGACUCCCAC` | MAFK | -1.062 |
| 2 | `AAUAGUCUAAGUAGCAAUC` | RP1 | 0.2534 |
| 3 | `UGGAUUGUUAUCUAUCUCC` | PSIP1 | 0.2488 |
| 4 | `UUUGUUGAUCCGACUGAGG` | NCF4 | 0.5982 |
| 5 | `UGAUUUUCCAAAGCCGUAU` | AMBN | 0.3383 |
| 6 | `AAAGGUUAGGUCAGAUUCC` | PDXDC1 | 0.2551 |
| 7 | `UCUGGAAGGACGAAGUUCC` | MRGBP | 0.5141 |
| 8 | `UUCCCUAUUAUUAUGGUAC` | MKI67 | 0.5356 |
| 9 | `UAUCUAGUACCUUGGGUUC` | C16orf54 | -0.5601 |
| 10 | `UAGUUGAGAAAGCAUGUCC` | ZNF641 | -1.079 |
| 11 | `UUGCUCGUAUGUGACCUCG` | LOC731467 | -0.2956 |
| 12 | `UCAUAUGUCAUGAGUAUGG` | RP1L1 | -1.07 |
| 13 | `AUCCAGGUGACAUAGGUGC` | AVPR2 | -0.6395 |
| 14 | `UCAGUAAUACCUCUGCUCC` | C2orf73 | 2.76 |
| 15 | `UUCCAUUGUAAUGUCGUAG` | TTC6 | -0.7559 |
| 16 | `UAAACAGUGACACUUUUAC` | TMEM14A | -0.7481 |
| 17 | `UAUUGGUGAAGUUAUAACA` | CCL2 | 0.6566 |
| 18 | `AAAUAGUCCUUCCUAAUUC` | RRP1 | 0.64 |
| 19 | `AGAAUUACCUGGAUGAUUG` | OR4D6 | 1.211 |
| 20 | `UAUGGGCUAGGACAAAAAC` | OTUD7A | 0.03079 |
| 21 | `AAGCUUGUGAAAGCUAUUG` | SNX8 | 0.3204 |
| 22 | `AACCUAUUCAUGCGUAGGC` | COMMD4 | 0.0608 |
| 23 | `AAUCCAAACAGAAUACUUC` | ACTBL2 | 0.1663 |
| 24 | `UCCAUUGCAAUAUUCAGGG` | ADAM2 | 0.008264 |
| 25 | `UUUUGGGUACGAUAUCUGC` | PPID | -0.1694 |
| 26 | `UCAUUGAUUGGGCAUAUGG` | IFRD1 | 1.754 |
| 27 | `AUUGAUUUAUGGUCAAUUG` | LOC646804 | -0.1739 |
| 28 | `AUAGUAACUGGACCAGAUG` | ARL16 | -0.4704 |
| 29 | `UUGAAGUUGAGGACAAUCU` | NRP2 | -1.476 |
| 30 | `AUCGUAAUAGUUCUGGUAG` | PSTPIP1 | 0.2491 |
| 31 | `UUCAUUCUCCUGCAAAAGC` | FGL1 | -0.2234 |
| 32 | `UUAGAGACGAGGCAGCAUG` | FBXW2 | 0.4647 |
| 33 | `UACUAAUUGCAAUCAUUCC` | SERPINI1 | 0.9839 |
| 34 | `UCUUCAAGUAGGGAGCUCC` | C3orf56 | -0.6014 |
| 35 | `AAAGCAAACAUUACCAUAG` | ZXDB | -0.2053 |
| 36 | `UUGGGUAGCUUGAUGAAGC` | FOXF1 | -1.058 |
| 37 | `UUAAACCCUAGGAUAGAUG` | RPL7P46 | 0.4061 |
| 38 | `UGAUCACCAACUUACGAGC` | TPM3 | -0.2097 |
| 39 | `UAACUAUCAAAUCUCUCUU` | TRIM21 | 0.7488 |
| 40 | `UGAAGUUCCACUAAUGUCU` | ATPAF2 | 1.037 |
| 41 | `UCCGAGAUUUCAUUUAUGC` | ZMYND8 | 0.06034 |
| 42 | `UGGUGUAACAUUGAGCCUC` | ACAT1 | -1.405 |
| 43 | `UUCUUGGUUACAGUGGCCG` | HIST1H1C | -0.5115 |
| 44 | `GUGAUGGGUACUGCACUGG` | LOC643043 | -1.153 |
| 45 | `ACUGUCAUAAAUCCGAAUG` | NMT2 | 0.343 |
| 46 | `AACUCAAUGACCGUCUUGG` | GSG1L | -1.207 |
| 47 | `UUUUCCUCUAGGAUGCUGC` | EIF2B5 | -0.06497 |
| 48 | `UCUUUAGCAGCCGUUGUUC` | FER | 0.2891 |
| 49 | `UUCUCGAAGUGGUUGUACU` | RPS11P5 | 0.9729 |
| 50 | `UCAGUCUUGAAUAGAACAG` | FKRP | 0.9511 |
| 51 | `UUCUAAACAGGUGCAGGUG` | F10 | -0.293 |
| 52 | `UCAGUGACAAACUUCUAGG` | COX6C | 0.5755 |
| 53 | `AUAAUGAUCAAACAUGUAC` | PPP1R3D | 1.053 |
| 54 | `UCUCCUUUGUGGUUCGUCC` | HMGN2P18 | 0.1056 |
| 55 | `UCAGCUUAUAGAGCGGCCG` | LLGL1 | -1.077 |
| 56 | `UUUACUUUCAAAGAGUCUC` | ZNF433 | -0.614 |
| 57 | `UUAGUAGCUGGUAUUUACC` | BBS10 | -1.001 |
| 58 | `UUCAAUUCUCUCUCCAUUC` | B2M | -0.2161 |
| 59 | `UCAGCCUUCAUGAUGUAGA` | TNFRSF8 | -0.5911 |
| 60 | `UUCCUUCCAGCUGUCUGCC` | MIEF2 | -0.05578 |
| 61 | `UCGCUGUAUGGAUAGUUCC` | LIPE | 0.2003 |
| 62 | `UACUUGUCUGAGUUGCUCC` | C2orf16 | -0.3355 |
| 63 | `CUUCCCAUUAGCCUUGUCU` | PYDC2 | -0.5956 |
| 64 | `AAAUAUGUCCCACAUUUCG` | MFSD9 | -0.1651 |
| 65 | `UGCAUGUACAAAGAACAUC` | OR52W1 | -0.8134 |
| 66 | `UCGGACACGAACUCCAUCC` | MRPS26 | 0.03078 |
| 67 | `AUCUUACUAAGAAUGGUUG` | CCNC | 0.7643 |
| 68 | `UCAGUGAAAGUUGUCAUGG` | AGFG2 | -0.04135 |
| 69 | `AAUCGUCUGAGAGCCGUUC` | FBXO36 | -0.8465 |
| 70 | `UACUUUCAGAUUUAAUGGU` | FABP4 | 0.7427 |
| 71 | `AACUGGGUGAGUAUGUUUG` | MTSS1L | -1.058 |
| 72 | `UUGAGUUAUUCUUAAUUCC` | SH3GLB1 | -0.4489 |
| 73 | `AAACUCCUCAGUGAAGGGC` | GRHL3 | 0.4938 |
| 74 | `AGAGUUACAAAUGUACCGC` | IL15RA | -0.3236 |
| 75 | `UUCAGGAAUAUGAGGCUGU` | RNFT2 | 1.019 |
| 76 | `UAAAUCCUCAUAAUGCUGU` | FAM216B | 0.2781 |
| 77 | `UGCAGUGCCUUGUAUGUCC` | ARHGEF19 | -0.8643 |
| 78 | `UAGCUCUCAGGAACCUUCG` | ERGIC2 | 0.4454 |
| 79 | `UCACCGAACAUUCCACAGG` | SPIDR | -0.01124 |
| 80 | `UCUUAGCACAGUACUUUGC` | ROBO3 | 0.3539 |
| 81 | `UAUGAUGCACUGUUCUUCC` | IAH1 | 0.3215 |
| 82 | `UGAUCUAUCUGAUUUGAGG` | TTC14 | -0.549 |
| 83 | `UCUUUCGGAAUUUCCAUCG` | ACAD10 | 0.3333 |
| 84 | `UUGCCAUCUUGUGUCCUGU` | PHGR1 | -1.253 |
| 85 | `UAGAGGUGAAGAAUUCGGC` | P4HA2 | -1.163 |

The first 9 entries again:

* UAUAUGUCCCGACUCCCAC against MAFK : seed-corrected z-score -1.062
* AAUAGUCUAAGUAGCAAUC against RP1 : seed-corrected z-score 0.2534
* UGGAUUGUUAUCUAUCUCC against PSIP1 : seed-corrected z-score 0.2488
* UUUGUUGAUCCGACUGAGG against NCF4 : seed-corrected z-score 0.5982
* UGAUUUUCCAAAGCCGUAU against AMBN : seed-corrected z-score 0.3383
* AAAGGUUAGGUCAGAUUCC against PDXDC1 : seed-corrected z-score 0.2551
* UCUGGAAGGACGAAGUUCC against MRGBP : seed-corrected z-score 0.5141
* UUCCCUAUUAUUAUGGUAC against MKI67 : seed-corrected z-score 0.5356
* UAUCUAGUACCUUGGGUUC against C16orf54 : seed-corrected z-score -0.5601